About 3,700 (7%) of roughly 53,000 sequences were called active.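 The calls were made as follows: active = gene knockdowns whose robust z-score for IL-1 alpha signal is at least 2 or at most -2, so actives lie on both sides; inactive = the rest.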 The list shows a part of the results.
experiment: Components of the Cytosolic LPS Sensing Pathway: Gene Identification via Genome-wide siRNA Screen; conditions: RAW264.7 macrophages, IL-1a HTRF, actives lie on both sides, screened at 100 nM (by protocol), cells primed 5 h with Pam3CSK4 first;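 also: robust z of the log signal after scaling to non-targeting control siRNA wells of the plate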
Procedure, shortened: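 Using IL-1a HTRF as read-out, the screen measured release from RAW264.7 cells after 48h siRNA knockdown (100 nM), 5 h Pam3CSK4 priming and 24 h cytosolic LipidA. Values were expressed relative to negative-control wells as robust z-scores.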

Row | Sequence | z-score
1 | CGACGAAGCGACCAUUCUUTT against Jchain | inactive: -0.386
2 | GGCUUCAGCCAGAGUUCAGTT against Zfp239 | inactive: -0.753
3 | GGUCUUCAGCAGUCAUCAGTT against Sprr2d | inactive: 0.391
4 | GGAUAAGAUAAUGUCUGUGTT against Olfr716 | inactive: -1.73
5 | GCCUGAAGCAAGACAAGAUTT against Dmkn | inactive: -0.232
6 | GGAUCCUCUUCUAUCUUUATT against Pycr1 | inactive: -1.27
7 | GGGUGUUCUAAGUAGUCGCTT against Cdk3 | inactive: -0.187
8 | CCAAGAUUCUCCUGAAUUATT against Plod2 | inactive: -0.183
9 | CCAGGAACGCACUUUGUCATT against Tnrc18 | inactive: -0.73
10 | GCCAAAACAUUUCAGAGCCTT against Hemk1 | inactive: -0.000768
11 | GGCUUUGAUGCAACUUCUGTT against Slc18a1 | inactive: -0.405
12 | GGAAGCCACGGUCAUGUGUTT against Trim9 | inactive: 0.746
13 | GCUGGUGAGUCACUGAUGATT against Med22 | inactive: 1.32
14 | GGUAUGGGUGAGAGCAACUTT against Ndufaf5 | inactive: 0.908
15 | GGAAUUCUACCGUUAUAUUTT against Trap1 | inactive: -0.503
16 | GGUCCAGAAAAUGUUUAUATT against Slc35a4 | inactive: -0.599
17 | GGAUAUGCCUCCCUUGAUGTT against Gstt3 | active: -2.4
18 | GGUUGAAGUGUGUUGCUUUTT against Atp13a1 | inactive: 0.908
19 | GGUGAUCACAAAUAUGAUGTT against Ubxn2b | inactive: -0.173
20 | CGUUUCCAGAUUGCACCUUTT against Rnaseh2b | inactive: 1.48
21 | GGAUCUGCUUGCAUUUGCATT against Map3k8 | inactive: 0.595
22 | GGAAUAUAAUGGUUACACATT against Trf | inactive: 0.0776

Row | Sequence | z-score
23 | CCAAGAAAGCAGGAUUAAGTT against Noxo1 | inactive: 0.41
24 | GGAAGAUUUCCUCUCCAAGTT against Dnajc15 | inactive: 0.239
25 | GGACAGUUCAAGAUGUUCCTT against Mthfr | inactive: -0.348
26 | CGAAAGAAGGUGAGGGCUCTT against Ppp1r9a | inactive: -0.653
27 | GGUUAGCUUCUUAAAACCATT against Adcy10 | inactive: -0.605
28 | GCACCAAUGGAACAGUGAUTT against Chfr | inactive: 0.202
29 | CCCAUAUCCUAGCUCUCUUTT against Olfr1230 | inactive: -1.49
30 | CGCAGCUUCCACAUUAGUGTT against Rad23a | inactive: -0.267
31 | GGAAGAAAAAAACUUCGUUTT against Gabrg3 | inactive: 0.186
32 | CCUGUCUGGACUUGUCUAATT against Ica1 | active: -2.05
33 | GCUCAUUCAACCAAUAUGCTT against Tmprss7 | inactive: -0.66
34 | GGCGCACAAUCAAGAUCUUTT against Col4a4 | inactive: 0.385
35 | GUUAUCAUCACCAUGUUGGTT against Atp6v0e | inactive: -1.4
36 | GGUUGCUCACUCAUUUAACTT against Pa2g4 | active: 2.18
37 | GGGAUUACUUGUAUCGGGATT against Lrrc46 | inactive: 0.448
38 | GGGAAUUGCUUUUAAAUGATT against Cnot6l | inactive: -0.664
39 | GGAGUCAUGAAGACCAAUUTT against Tex48 | inactive: 0.552
40 | GGCUUUGAUCAGCUCAGAATT against Klhl9 | inactive: -0.243
41 | GCCGUGGUGUGGAUUUUUGTT against Cenpa | inactive: -1.24
42 | GGCUGUGUUUUUGAACCUUTT against Chrna3 | inactive: -0.323
43 | CGGUCCAAUCUUCUACCCUTT against Rnaset2b | inactive: -0.695
44 | GCAAUAUUUCAGCACACUGTT against Txndc16 | inactive: -1.08

Row | Sequence | z-score
45 | GGUGUACCUUGGGACUUACTT against Prpf18 | active: -2.84
46 | CACUUAUGACCACGCUGAUTT against Olfr809 | inactive: 0.113
47 | GGAGCAACAGAGAUUUCUUTT against Sergef | active: 2.07
48 | GGAGACAUGGACUCCUAUATT against Nt5el | inactive: 0.201
49 | GGUGAGAGGAAGGAAGAGATT against Pcsk7 | active: 2.54
50 | GAUUAUCCAUUGCCCGAUGTT against Lce1h | inactive: 0.724
51 | GGACUUUUAUCACGAAGAGTT against E230016K23Rik | inactive: 0.584
52 | CGUAGAGAGUCUCCCAUCATT against 4930474N05Rik | inactive: -1.63
53 | GCAAAAGAGGGAAUAAUUCTT against Ssb | inactive: 0.397
54 | GCAGCUAGCGAUCUUUGGUTT against Thpo | inactive: 0.955
55 | GGAGGAUGAGAAAGAAGAGTT against Gja8 | inactive: -0.176
56 | GGUGUGGUAUCUCUUGUAGTT against Tfdp1 | inactive: 0.0183
57 | GCCAGUGAGGCUACUUUCATT against Myo18a | inactive: 1.88
58 | GGAACAAUUUGAUCCAGCATT against Mbnl2 | inactive: -1.67
59 | GGCAAACAUGUGUUCCCUGTT against Prap1 | inactive: -1.85
60 | GCUAGGCUUAUGAUCUUUUTT against Pfkp | inactive: -0.525
61 | GGGUCCAGUAUCCAUCAAATT against Sf3a1 | active: -2.7
62 | GCUUUCAAAUGAAUCUGGATT against D630023F18Rik | inactive: -0.531
63 | GCACCUACACCGCUUACAUTT against Tmem101 | inactive: -0.499
64 | GGCAAUUCUCUGUAUCCACTT against Cyp2d34 | inactive: -0.358
65 | GGCUUCAAGGAGACUGCUUTT against Wnt9a | inactive: 0.856
66 | GGGAGAGCACAGAUGUGGATT against Dock8 | inactive: -1.28

Some of the entries so far, as tab-separated lines:
Row	Sequence	z-score
57	GCCAGUGAGGCUACUUUCATT against Myo18a	inactive: 1.88
64	GGCAAUUCUCUGUAUCCACTT against Cyp2d34	inactive: -0.358

The list goes on:

Row | Sequence | z-score
67 | CGACCUACAUCAUUAUGAATT against Chrm3 | inactive: 0.0125
68 | GGACAUUCCUGAACAUAAUTT against Pcdha3 | inactive: -1.17
69 | GGAUACAAUACACGGACGATT against Syt14 | inactive: -0.0737
70 | CCCUCAGCUACAUUCUCCUTT against Olfr1313 | inactive: -0.784
71 | CCCUGAAGUUUAUGCAACATT against Ttyh2 | active: -3.02
72 | GGACACUUGUCUUCACUUGTT against Fancc | inactive: 0.339
73 | CAUGGUUUUUAGAGACAAUTT against Olfr774 | inactive: 0.123
74 | GCUAGAGAAAUGGAAUUUATT against Kansl3 | inactive: -0.653
75 | GCUGUCACUUCAAUAACUGTT against Bach2os | inactive: 0.957
76 | GGGUCACCAUCAAGAUGGATT against Erg | inactive: 0.0262
77 | GGUGCAUAAAACCCUUAAATT against Rbms1 | inactive: -1.56
78 | GCUCCUGAACUAAUACAAGTT against Melk | active: 5
79 | GGAAGGAGAUUACAUUGUUTT against Rhpn2 | inactive: 1.5
80 | CGAAGUACCUGAAUUUUGCTT against Pde6b | inactive: -1.14
81 | GGAAAAAUGUGCUGUGUGGTT against Tcea1 | inactive: -1.67
82 | GGAUAUAACCAUCCUCUGUTT against Zscan29 | inactive: 0.578
83 | GGCUCUUUACAGAUAUUCCTT against Cdc42se2 | inactive: -0.335
84 | GCAGUUACGUAGAAAGUCUTT against Prdx6b | inactive: -1.25
85 | GGUCAACAACAACUCCGUUTT against Ret | inactive: 0.625
86 | GGUUUUUAACCAAACAUGATT against Actr3 | inactive: -0.784
87 | CCUCAAUUCGGACAAGCUGTT against Scnn1a | inactive: -1.29
88 | GCAACAUCCAGGCUUGCCUTT against Tmem107 | inactive: -0.874

Taken from above:
z-score with GCAGUUACGUAGAAAGUCUTT against Prdx6b reads inactive: -1.25
z-score with GGUUUUUAACCAAACAUGATT against Actr3 reads inactive: -0.784
z-score with GGAAGGAGAUUACAUUGUUTT against Rhpn2 reads inactive: 1.5

Remaining list, next part:

Row | Sequence | z-score
89 | GGGUGGAGAACCAAGUUUUTT against Tmed6 | active: 3.21
90 | GAGCCUUUCCUUUCUGGACTT against Olfr466 | inactive: 0.292
91 | GGCAAUCCCAUAGAGGCUGTT against Mief2 | active: -2.64
92 | GCAGUGGGAAUCGAUAAAGTT against Fgfr2 | inactive: -0.876
93 | CGUAGUGAUCCUGUUCCAGTT against Lsr | inactive: -0.745
94 | GCCAGACUGAGCUACAAAATT against Gm9732 | inactive: -1.3
95 | GGUAUGAGUACAAAUACUGTT against Tek | inactive: 1.97
96 | UUACUCAGUUCUCACCUUCTT against Olfr970 | inactive: -0.24
97 | GCGUGGAAAAGUGUUACCATT against Rhbdd1 | inactive: 0.691
98 | GGCUAAGUGGGUGUUCACGTT against Slc24a4 | inactive: -0.214
99 | CCCAAGAAUGACCAAGUAGTT against Gpr17 | inactive: -1.07
100 | CCAUUACAGGGUUUUUUAUTT against Slc37a3 | inactive: -0.62
101 | GGCUUUUGACUUUACCCUATT against Acy3 | inactive: -1.3
102 | GGAGUCGUCAACUCUGGCUTT against Lsm10 | inactive: 0.161
103 | GGUGGAUGAAGUUAUUGAUTT against Vamp4 | inactive: 0.809
104 | GGGCAAAGCCUUCAACCCUTT against Insl6 | inactive: -0.038
105 | UUCGGAUCCUAACUUCAACTT against Zmynd12 | inactive: -0.716
106 | GCCUGUCGUACCUCCUUUATT against Folr2 | inactive: 0.793
107 | GGGAAAGAAAGGGUACAAUTT against Nfxl1 | inactive: -0.123

From PubChem BioAssay AID1508600 (Functional Genomics Laboratory (NCATS/FGL), 2020)
